{
  "source": "paper PMC3996760",
  "about": "(Brain research, 2014)",
  "origin": "cited, not measured here",
  "conditions": "2 mg/kg i.p., 20 min; ref Savić et al., unpublished data; cited from earlier work",
  "data": [
    {"smiles": "CN1C(=O)CN=C(c2ccccc2)c2cc(Cl)ccc21", "note": "[diazepam, reference compound]", "values": [
      {"measurement": "brain estimated free concentration", "result": 58.46, "unit": "nmol/kg"}
    ]}
  ]
}
